Among the data in publication PMC4002474, “Secretoglobin 1A1 and 1A1A Differentially Regulate Neutrophil Reactive Oxygen Species Production, Phagocytosis and Extracellular Trap Formation” (PLoS ONE, 2014) are binding values, retold here.

The assay concerns the target equine recombinant SCGB 1A1 (secretoglobin family 1A member 1) (horse (E. caballus)) (UniProt Q8MKG2). The assay can be described thus: reducing SDS-PAGE; purified recombinant protein run on reducing and denaturing SDS-PAGE; both purified.

Results are given in words; binding and its absence hold for the method and conditions named.

B1: equine recombinant SCGB 1A1 (secretoglobin family 1A member 1) (natural protein, horse (E. caballus), UniProt Q8MKG2 22-91, looked up)
chain: EICQSFADIIQGLFLGTPASFEAAVEPFKPDADMKAATTQLKTLVDFLPKNTKDSILKLMDKIAKSPLCA
notes: SCGB 1A1 of the horse (E. caballus), mature protein without the signal peptide, cDNA from equine lung, 100% identical to NCBI JQ906260.1; Cloned in pMAL-c5X, said to add no vector-derived residues after Factor Xa cleavage; Disulfide-dependent homodimer; also called club (Clara) cell secretory protein; CCSP; source: E. coli BL21 (NEB Express), purified (amylose column, Factor Xa, FPLC SuperDex …)
With B1, the binding entry is “no binding (condition: reducing and denaturing conditions)”.
